Laboratory results: patent US20210061922A1
Results are given in words; binding and its absence hold for the method and conditions named. Some binding calls cover weakened binding; strength is not graded here.

Protein sequences, listed by entry. Tags and fused reporters are not part of them. Residues count along the entry.
UniProt P26951, residues 19-378: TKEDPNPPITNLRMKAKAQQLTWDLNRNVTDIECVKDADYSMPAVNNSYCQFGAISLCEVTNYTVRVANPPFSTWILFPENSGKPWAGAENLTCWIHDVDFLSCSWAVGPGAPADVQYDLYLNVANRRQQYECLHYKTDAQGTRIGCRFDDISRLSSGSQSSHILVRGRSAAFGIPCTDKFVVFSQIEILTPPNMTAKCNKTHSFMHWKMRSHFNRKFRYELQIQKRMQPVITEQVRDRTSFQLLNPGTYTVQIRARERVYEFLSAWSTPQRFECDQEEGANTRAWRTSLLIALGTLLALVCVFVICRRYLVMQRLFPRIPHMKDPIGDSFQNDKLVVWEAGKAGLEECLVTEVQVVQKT

Legend:
[1] = target: T1, CD20 on Raji cells (UniProt P11836); assay: analytical cytometry on Raji cells, detected with an anti-kappa secondary antibody
T1 sequence (looked up): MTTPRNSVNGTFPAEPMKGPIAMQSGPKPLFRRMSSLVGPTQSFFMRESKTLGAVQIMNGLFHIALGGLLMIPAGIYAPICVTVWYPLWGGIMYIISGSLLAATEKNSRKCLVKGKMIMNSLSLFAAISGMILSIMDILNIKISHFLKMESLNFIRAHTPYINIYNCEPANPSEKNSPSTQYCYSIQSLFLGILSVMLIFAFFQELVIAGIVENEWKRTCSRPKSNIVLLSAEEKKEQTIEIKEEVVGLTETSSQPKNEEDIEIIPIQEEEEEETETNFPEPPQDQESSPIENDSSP

[2] = target: CD123 on MV411 cells (UniProt P26951); assay: analytical cytometry on MV411 cells, detected with an anti-kappa secondary antibody

B1: Trispecific antibody from FIG. 13: anti-CD33-LC/anti-CD20/anti-CD123/anti-CD33-HC Fab loop (protein)
chain: DIQMTQSPSILSASVGDRVTITCRASESVDNYGISFMNWFQQRTNKAPRLLIYAASNQGSGVPSRFSGSGSGTDFTLTISSLQPDDEADYYCQQSKEVPWTFGAGTKLEIKRTVAAPSVFIFPPSDEQLKSGTASVVCLLNNFYPREAKVQWKVDNALQSGNSQESVTEQDSKDSTYSLSSTLTLSKADYEKHKVYACEVTHQGLSSPVTKSFNRGEGGGSSGEVQLVESGGGLVQAGGSLRLSCAASGSIFSGNVMGWYRRQAPGKEREWVAAIASGGSIYYRDSVKGRFTISRDNAKNTVYLQMNSLKPEDTAVYYCNSHPPTLPYWGLGTQVTVSSGSEVQLVESGGGLVQPGGSLRLSCTFSGGTFSSYTMGWFRQAPGKEREFVAEVRWGGVTTYSNSLKDRFSISEDSVKNAVYLQMNSLKPEDTAVYYCAAVRQMYMTVVPDYWGQGTLVTVSSGGGSSGEVQLVQSGAEVKKPGSSVKVSCKASGYTFTDYNMHWVRQSPGQGLEWIGYIYPYNGGTGYNQKFKSKATITADESTNTAYMELSSLRSEDTAIYYCARGRPAMDYWGQGTLVTVSSASTKGPSVFPLAPSSKSTSGGTAALGCLVKDYFPEPVTVSWNSGALTSGVHTFPCVLQSSGLYSLSSVVTVPSSSLGTQTYICNVNHKPSNTKVDKKVEPKSGDKTHT
In the case of B1, the binding [1] is reported as “binds” and the binding [2] is reported as “binds”.
